The test system of this test is CD2F1 mice, L1210 leukemia ip, survival T/C. Kind of test: NCI In Vivo Anticancer Drug Screen. Data for tumor model L1210 Leukemia (intraperitoneal) in CD2F1 (CDF1) mice. To be noted: higher T/C = longer survival. A digest of the protocol:
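Compound-dosed mice with transplantable tumor versus matched vehicle controls; endpoint ratio T/C reported.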

Setting [1] is: T/C endpoint: mean survival time, dose: 100.0 mg/kg/injection, schedule: Q04DX003 (ip), vehicle: saline with Tween-80.
Setting [2] is: T/C endpoint: mean survival time, dose: 200.0 mg/kg/injection, schedule: Q04DX003 (ip), vehicle: saline with Tween-80.
The mark [3] stands for this setting: T/C endpoint: mean survival time, dose: 400.0 mg/kg/injection, schedule: Q04DX003 (ip), vehicle: saline with Tween-80.
[4] abbreviates: T/C endpoint: mean survival time, dose: 200.0 mg/kg/injection, schedule: Q01DX001 (ip), vehicle: saline with Tween-80.
The mark [5] stands for this setting: T/C endpoint: mean survival time, dose: 400.0 mg/kg/injection, schedule: Q01DX009 (ip), vehicle: saline with Tween-80.
Setting [6] is: T/C endpoint: mean survival time, dose: 100.0 mg/kg/injection, schedule: Q01DX009 (ip), vehicle: saline with Tween-80.
The mark [7] stands for this setting: T/C endpoint: mean survival time, dose: 200.0 mg/kg/injection, schedule: Q01DX009 (ip), vehicle: saline with Tween-80.
Setting [8] is: T/C endpoint: mean survival time, dose: 100.0 mg/kg/injection, schedule: Q01DX009 (ip), vehicle: Klucel (hydroxypropylcellulose) (HPC).
[9] abbreviates: T/C endpoint: mean survival time, dose: 400.0 mg/kg/injection, schedule: Q04DX002 (ip), vehicle: saline with Tween-80.

Each structure is given as a SMILES string. The list shows only some results of the screen, not a fair sample: it gathers tests that were run many times, whatever their T/C, doses with no T/C, and many T/C values between a quarter and a half above the control. Further doses and runs are listed elsewhere. T/C: endpoint of the treated group in % of that of the vehicle group. Some entries give survivors of the animals treated and no T/C: the source files T/C as zero there, which appears to mark a toxic dose or a test without result, not a measured value. Some doses without a T/C left all or most animals alive at the check, yet need not have been tolerated: survival well below the control is almost never listed, so the zero probably covers shortened survival too. Survivors were counted at the toxicity check, usually on the fifth day, unless a day is given; later deaths do not show. Schedule codes are those of the source, taken here to give the interval after Q, in days (D) or hours (H), and the number of doses after X. Some doses were run more than once; the results are listed from low to high. Where survival is the endpoint, this PubChem deposit counts one and a half times the control or more as active, and values a quarter to a half above the control carry no call in these data; other NCI protocols may use other cut-offs. Some T/C values are followed by the survivors on the day toxicity was checked, most often the fifth; where none is given, no animal had died by that day.

In the case of `COC(=O)[CH](C[N+](=O)[O-])[Hg][Cl]` (stereo unspecified), the survivor count reads like this: (T/C endpoint: mean survival time, dose: 3.12 mg/kg/injection, schedule: Q01DX009 (ip), vehicle: saline with Tween-80) 2 of 6; (T/C endpoint: mean survival time, dose: 12.5 mg/kg/injection, schedule: Q01DX009 (ip), vehicle: saline with Tween-80) 1 of 6; (T/C endpoint: mean survival time, dose: 25.0 mg/kg/injection, schedule: Q04DX003 (ip), vehicle: saline) 3 of 6; (T/C endpoint: mean survival time, dose: 50.0 mg/kg/injection, schedule: Q04DX003 (ip), vehicle: saline) 0 of 6; under setting [1], 0 of 6; under setting [2], 0 of 6. Further, the survivor count under setting [3] is reported as 0 of 6. As for `O=[N+]([O-])c1cccc(Cc2nc3ccccc3nc2-c2ccccc2)c1`, the survivor count under setting [4] was 6 of 6. Turning to `CCCCCCCCOC(=O)c1cc([N+](=O)[O-])c(Cl)c([N+](=O)[O-])c1`, the survivor count was 3 of 6 under setting [2] and 0 of 6 under setting [3]. Consider `CCOc1cccc(Cc2cn(Cc3cccc(NC(=O)c4ccc(S(=O)(=O)F)cc4)c3)c(=O)[nH]c2=O)c1`, for which the survivor count (T/C endpoint: mean survival time, dose: 300.0 mg/kg/injection, schedule: Q01DX001 (ip), vehicle: saline with Tween-80) is given as 6 of 6. Turning to `CCCCNC(=O)Nc1cccc2c(O)cccc12`, the survivor count is, setting by setting: (T/C endpoint: mean survival time, dose: 100.0 mg/kg/injection, schedule: Q01DX009 (ip), vehicle: DMSO) 0 of 3; (T/C endpoint: mean survival time, dose: 200.0 mg/kg/injection, schedule: Q01DX009 (ip), vehicle: DMSO) 2 of 3.

Take `OC1=C2CCCCCC2=[N+]2CCCCC2C1` (stereo unspecified): the survivor count under setting [3] is on record as 3 of 6. On the same count and under the same terms, the result for `CC(C)(CN=Cc1ccccc1[O-])N=Cc1ccccc1[O-].[O]=[V]` reads 0 of 6. `CC(C)(C)NC(=O)CCC(CC(=O)NC(C)(C)C)C1([N+](=O)[O-])CCCCC1` (stereo unspecified): the survivor count under setting [5] is 6 of 6.

Turning to `NC(=O)N/N=C1/CCCC2CCCCC12` (stereo unspecified), for the setting “T/C endpoint: mean survival time, dose: 75.0 mg/kg/injection, schedule: Q04DX003 (ip), vehicle: saline with Tween-80”, the survivor count is 6 of 6. As for `CC1(C)C2CC=C(CCOC(=S)S)C1C2.[Ni]` (stereo unspecified), the survivor count under setting [3] was 6 of 6. As for `OC(Cc1cccc(/C=N/N2CCOCC2)n1)(C(F)(F)F)C(F)(F)F`, under setting [1], the survivor count is reported as 6 of 6.

In the case of `Nc1[nH]c(=O)ncc1C(=O)NCC(=O)O`, the survivor count under setting [6] was 0 of 6, the survivor count under setting [7] is on record as 0 of 6 and the survivor count under setting [5] is 2 of 6.

In the case of `CC(C)=CCOC1=CC(=O)C(=O)c2ccccc21`, the survivor count was 0 of 6 under setting [4] and 0 of 6 (T/C endpoint: mean survival time, dose: 400.0 mg/kg/injection, schedule: Q01DX001 (ip), vehicle: saline with Tween-80). In the case of `Cc1c(F)c(F)c(C(=O)O)c(F)c1F`, the survivor count under setting [5] is reported as 6 of 6. For `c1coc(CNc2ncnc3c2ncn3CCCCCCn2cnc3c(NCc4ccco4)ncnc32)c1`, the survivor count (T/C endpoint: mean survival time, dose: 8.0 mg/kg/injection, schedule: Q01DX005 (ip), vehicle: other) is 3 of 3. With `Cn1ccc(=Nc2ccc(NC(=O)c3ccc(N=c4ccn(C)c5ccc([N+](=O)[O-])cc45)cc3)cc2)cc1`, the T/C (T/C endpoint: mean survival time, dose: 50.0 mg/kg/injection, schedule: Q01DX009 (ip), vehicle: water) is 129 % of control [5 of 6 alive]. For the same molecule, the survivor count (T/C endpoint: mean survival time, dose: 100.0 mg/kg/injection, schedule: Q01DX009 (ip), vehicle: water) is 1 of 6. As for `Cc1ccc(C(=O)[O][Hg][CH2]C2COC([CH2][Hg][O]C(=O)c3ccc(C)cc3)CO2)cc1` (stereo unspecified), the survivor count (T/C endpoint: mean survival time, dose: 50.0 mg/kg/injection, schedule: Q01DX009 (ip), vehicle: Klucel (hydroxypropylcellulose) (HPC)) is given as 6 of 6 and the survivor count under setting [8] is reported as 0 of 6. In the case of `CCCCCCCCC(C(=O)c1ccccc1)=C(C(F)(F)F)C(F)(F)F`, the survivor count is 5 of 6 under setting [7] and 3 of 6 under setting [5]. For the molecule `Cc1c2[nH]c(c1CCC(=O)O)/C=c1\[n-]/c(c(C)c1CCC(=O)O)=C\c1[n-]c(c(C)c1C(C)O)/C=c1\[nH]/c(c(C)c1C(C)O)=C\2.[Cl][Pt+2][Cl]` (stereo unspecified), the survivor count (T/C endpoint: mean survival time, dose: 200.0 mg/kg/injection, schedule: Q04DX003 (ip), vehicle: Klucel (hydroxypropylcellulose) (HPC)) is recorded as 4 of 4. For the molecule `O=C(c1ccc2c(c1)OCO2)c1ccc[nH]1`, the survivor count under setting [3] is listed as 6 of 6. In the case of `O=C1c2ccccc2C(=O)c2c(NCCCNCCO)ccc(NCCCNCCO)c21`, the survivor count under setting [6] was 3 of 6. For `C=C1C(=O)C2=CC1CCC(=O)C1(C)CCC(OC(C)=O)C(C)(C)C1CC2O` (stereo unspecified), where the note is “T/C endpoint: mean survival time, dose: 120.0 mg/kg/injection, schedule: Q01DX009 (ip), vehicle: Klucel (hydroxypropylcellulose) (HPC)”, the survivor count was 0 of 6. Regarding `CSc1ccc(N=C=C(c2ccccc2)c2ccccc2)cc1`, the survivor count under setting [6] is listed as 0 of 6, the survivor count under setting [7] is reported as 0 of 6 and the survivor count under setting [5] is 0 of 6.

Regarding `Cc1[nH]c2ccc([N+](=O)[O-])cc2c1CN(C)C`, the survivor count (T/C endpoint: mean survival time, dose: 300.0 mg/kg/injection, schedule: Q01DX001 (ip), vehicle: saline) was 0 of 6. In the case of `CC(=O)c1ccc(N=NC2C(=O)N(c3ccccc3)N=C2C)cc1` (stereo unspecified), the survivor count under setting [6] is recorded as 6 of 6.

As to `O=S1(=O)CC(Cl)(Br)C1` (tested in a mixture with another compound), the survivor count runs as follows: under setting [8], 6 of 6; (T/C endpoint: mean survival time, dose: 200.0 mg/kg/injection, schedule: Q01DX009 (ip), vehicle: Klucel (hydroxypropylcellulose) (HPC)) 4 of 6; (T/C endpoint: mean survival time, dose: 400.0 mg/kg/injection, schedule: Q01DX009 (ip), vehicle: Klucel (hydroxypropylcellulose) (HPC)) 6 of 6. With `CCCCCCCCCC[n+]1ccc(C#N)cc1`, the survivor count (T/C endpoint: mean survival time, dose: 37.5 mg/kg/injection, schedule: Q01DX001 (ip), vehicle: saline) is recorded as 0 of 6. In the case of `CN1C=Cc2ccccc2C1`, the survivor count is reported as 3 of 6 under setting [7] and 0 of 6 under setting [5]. As for `Nc1nc(N)n(-c2ccccn2)n1`, where the note is “T/C endpoint: mean survival time, dose: 300.0 mg/kg/injection, schedule: Q01DX001 (ip), vehicle: other”, the survivor count was 3 of 6. Turning to `CCCCCCCCCCCCOCCOCCOCCOCCO`, the survivor count under setting [9] was 1 of 3. Consider `COc1cc2cnccc2cc1O`, for which the survivor count is, setting by setting: (T/C endpoint: mean survival time, dose: 200.0 mg/kg/injection, schedule: Q01DX009 (ip), vehicle: water) 0 of 6; (T/C endpoint: mean survival time, dose: 400.0 mg/kg/injection, schedule: Q01DX009 (ip), vehicle: water) 0 of 6. As for `CCOC(=O)/C(=C/C(C#N)=C/N(C)C)CC`, the survivor count (T/C endpoint: mean survival time, dose: 400.0 mg/kg/injection, schedule: Q04DX003 (ip), vehicle: saline sonified) was 6 of 6. Turning to `CC1CCC2(OC1)OC1CC3C4CCC5(C)CC(=O)CCC5(C)C4CCC3(C)C1C2C` (stereo unspecified), the survivor count under setting [9] is 3 of 3. For the molecule `CNC(=O)c1cccc2c(Nc3ccc(NS(C)(=O)=O)cc3OC)c3cccc(C)c3nc12`, the T/C was 135 % of control (T/C endpoint: median survival time, dose: 1.5 mg/kg/injection, schedule: Q01DX009 (ip), vehicle: water); 133 % of control (T/C endpoint: median survival time, dose: 3.12 mg/kg/injection, schedule: Q01DX009 (ip), vehicle: water); 132 % of control (T/C endpoint: median survival time, dose: 6.0 mg/kg/injection, schedule: Q01DX009 (ip), vehicle: water). The survivor count runs as follows: (T/C endpoint: median survival time, dose: 12.5 mg/kg/injection, schedule: Q01DX009 (ip), vehicle: water) 6 of 6; (T/C endpoint: median survival time, dose: 24.0 mg/kg/injection, schedule: Q01DX009 (ip), vehicle: water) 6 of 6; (T/C endpoint: median survival time, dose: 25.0 mg/kg/injection, schedule: Q01DX009 (ip), vehicle: water) 6 of 6; (T/C endpoint: median survival time, dose: 50.0 mg/kg/injection, schedule: Q01DX005 (oral), vehicle: water) 6 of 6; (T/C endpoint: median survival time, dose: 50.0 mg/kg/injection, schedule: Q01DX009 (ip), vehicle: water) 5 of 6 and 6 of 6; (T/C endpoint: median survival time, dose: 100.0 mg/kg/injection, schedule: Q01DX005 (oral), vehicle: water) 6 of 6. Besides, the survivor count runs as follows: (T/C endpoint: median survival time, dose: 100.0 mg/kg/injection, schedule: Q01DX009 (ip), vehicle: water) 6 of 6; (T/C endpoint: median survival time, dose: 200.0 mg/kg/injection, schedule: Q01DX005 (oral), vehicle: water) 6 of 6; (T/C endpoint: median survival time, dose: 200.0 mg/kg/injection, schedule: Q01DX009 (ip), vehicle: water) 1 of 6. With `CCCCCCCCCCCCCC(=O)N(C)C`, the survivor count under setting [3] was 3 of 6.
